Laboratory results taken from PMC12538437, “Branched DNA processing by a thermostable CAS-Cas4 from Thermococcus onnurineus: Expanding biochemical landscape of nuclease activity”.
Results are given in words; binding and its absence hold for the method and conditions named.

Target: Cas2 protein from Thermococcus onnurineus NA1 (TON_0320) (Thermococcus onnurineus NA1)
Assay: pull-down; in vitro double pull-down: TON_0321 (75 μg) and Cas2 (75 μg) mixed, glutathione Sepharose 4B beads 2 h at 4 °C, eluted with 10 mM glutathione, eluate then on Ni-NTA agarose beads 2 h at 4 °C, eluted with 500 mM imidazole; 25 mM Tris-HCl pH 8.0, 150 mM NaCl, 5% glycerol; Coomassie-stained gels; both purified

B1: TON_0321, CAS-Cas4 protein from Thermococcus onnurineus NA1 (enzyme, UniProt B6YTB9 1-222)
chain: MGYPEEIEEFNERIRNAIVGKTPERKIWVTSLSYCLRKAALSIYLGTFKYERTGEMLVGSVLHEWLGNALSSEDIEFEVTVEYPLEDGWKLVGRVDAVKGNYPLEFKFKGFNGEDESSPKTPDEMNEPPKLAKEQLNAYLNMMDKKLGYIYVFDRNGLSFKPFPVERDKKAFQRILRRAKVVIEGVRQLESGSFPEWIKPRYGKRECGGCLFRPICEAVESK
  binding: no binding (tested: 75 μg of each protein)
